Laboratory results taken from paper PMC9005747, “Application of per-Residue Energy Decomposition to Design Peptide Inhibitors of PSD95 GK Domain” (Frontiers in Molecular Biosciences, 2022).
These are yes or no findings as the source states them, for the method shown. Some binding calls cover weakened binding; strength is not graded here.

Sequences of proteins named here, by UniProt entry; tags and fusion partners are left off. Residues count along the entry.
UniProt P31016, residues 531-713: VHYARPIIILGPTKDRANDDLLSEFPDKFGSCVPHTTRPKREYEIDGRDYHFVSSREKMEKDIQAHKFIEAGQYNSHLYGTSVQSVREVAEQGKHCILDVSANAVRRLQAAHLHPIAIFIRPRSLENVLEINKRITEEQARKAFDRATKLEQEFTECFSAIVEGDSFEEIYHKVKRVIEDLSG

T1: FITC-labeled SAPAP peptide FITC-AARRE(pS)YLKATQ
T1 sequence (peptide, phosphoserine (pS) at the sixth residue; FITC on the N-terminus): AARRESYLKATQ


Key:
[1] = target: T1, FITC-labeled SAPAP peptide FITC-AARRE(pS)YLKATQ; experiment: fluorescence polarisation; competition: 10 nM FITC-SAPAP, 2 uM PSD95 GK, peptide inhibitors serially diluted (8-point curve); 50 mM Tris, 100 mM NaCl, pH 7.5; 1-h incubation; Ki from IC50 by the formula of Nikolovska-Coleska et al.; both purified
[2] = target: His6-tagged PSD95 GK domain (a.a. 531-713) (UniProt P31016); experiment: as above

binding [1]	binding [2]	Molecule
binds		His6-tagged PSD95 GK domain (a.a. 531-713) (from UniProt P31016 531-713) (domain or fragment)
	binds	AARRESYLKATQ (phosphoserine (pS) at the sixth residue) [free-labeled (unlabeled) SAPAP peptide AARRE(pS)YLKATQ]
